Laboratory results: PubChem BioAssay AID504808 (Drosophila RNAi Screening Center, 2011)

Purpose: 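Chromatin factors that keep E2F targets switched off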 (primary screen)
System: Drosophila S2 cells
Knock-down reagent: long dsRNA against Drosophila genes
Measurement: 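Dual luciferase plate measurements; E2F-specific signal taken as firefly over Renilla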
Scale: E2F firefly: higher = more E2F reporter activity; Renilla normaliser: higher = more normaliser reporter signal
Hit rule: 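a knock-down counted as active when the firefly/Renilla E2F signal rose above 50%, a threshold chosen arbitrarily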
The deposit covers about 21,000 reagents; below is an unselected part of those that have a named target and a result. Over the whole deposit, 18 (0.084%) were called active. 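Raw counts without plate normalisation, one of two replicates; the ratio scores behind the calls were not deposited.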 Names joined by + are all predicted targets of the reagent. Not stated in the record: the amount of reagent, the time to read-out.

gene knocked down | amplicon | E2F firefly, rep 1 | Renilla normaliser, rep 1 | Call
soti (GeneID 41748) | DRSC16432 | 85282 | 4347 | inactive
CG12171 (GeneID 40690) | DRSC12200 | 1.40e5 | 6342 | inactive
CG11122 (GeneID 32046) | DRSC19382 | 8660 | 820 | inactive
CG5114 (GeneID 39624) | DRSC10482 | 74740 | 3730 | inactive
Paip2 (GeneID 41591) | DRSC14504 | 71223 | 3200 | inactive
Ltn1 (GeneID 40127) | DRSC11056 | 83545 | 3546 | inactive
Ltn1 (GeneID 40127) | DRSC11058 | 1.30e5 | 6566 | inactive
CG7884 (GeneID 32914) | DRSC20065 | 1.40e5 | 6035 | inactive
lectin-37Db (GeneID 3346221) | DRSC03279 | 89873 | 3870 | inactive
Mkp3 (GeneID 40081) | DRSC10084 | 76947 | 3176 | inactive
Mkp3 (GeneID 40081) | DRSC10085 | 1.51e5 | 6888 | inactive
Efr (GeneID 31553) | DRSC18322 | 1.12e5 | 5364 | inactive
Gad1 (GeneID 38484) | DRSC08661 | 71286 | 3832 | inactive
jhamt (GeneID 34977) | DRSC01985 | 64025 | 3121 | inactive
CG10055 (GeneID 40862) | DRSC12503 | 1.24e5 | 6108 | inactive
Eig71Ek (GeneID 39712) | DRSC11158 | 1.71e5 | 7747 | inactive
CG30089 (GeneID 36736) | DRSC06126 | 66886 | 3071 | inactive
CG30089 (GeneID 36736) | DRSC06127 | 87624 | 3570 | inactive
CG30089 (GeneID 36736) | DRSC06267 | 88480 | 3663 | inactive
CG30089 (GeneID 36736) | DRSC06268 | 52580 | 4447 | inactive
CG7049 (GeneID 38022) | DRSC08587 | 65697 | 3395 | inactive
CG7276 (GeneID 39668) | DRSC10797 | 1.60e5 | 8164 | inactive
5-HT1A (GeneID 37196) | DRSC05030 | 1.61e5 | 5175 | inactive
Trhn (GeneID 38121) | DRSC08621 | 87824 | 3830 | inactive
Acp62F (GeneID 38340) | DRSC08136 | 1.09e5 | 4406 | inactive
CG7329 (GeneID 34457) | DRSC03046 | 1.46e5 | 4092 | inactive
CG8563 (GeneID 38826) | DRSC10996 | 84512 | 3570 | inactive
AOX3 (GeneID 41896) | DRSC15955 | 91986 | 4446 | inactive
Gr98a (GeneID 43305) | DRSC14719 | 49504 | 3622 | inactive
siz (GeneID 40327) | DRSC11622 | 1.28e5 | 5770 | inactive
siz (GeneID 40327) | DRSC11689 | 1.18e5 | 6136 | inactive
siz (GeneID 40327) | DRSC11690 | 1.24e5 | 5822 | inactive
iPLA2-VIA (GeneID 39160) | DRSC10699 | 79140 | 3297 | inactive
Idh (GeneID 44291) | DRSC10779 | 78223 | 3115 | inactive
sov (GeneID 31615) | DRSC17930 | 9031 | 768 | inactive
CG34236 (GeneID 5740183) | DRSC05435 | 1.21e5 | 5016 | inactive
Peritrophin-15b (GeneID 50432) | DRSC02266 | 1.47e5 | 5514 | inactive
CG31323 (GeneID 318682) | DRSC14901 | 1.02e5 | 6151 | inactive
CNMa (GeneID 38242) | DRSC08405 | 88220 | 4509 | inactive
CG13024 (GeneID 39880) | DRSC09904 | 1.61e5 | 7948 | inactive
E(spl)m2-BFM (GeneID 43155) | DRSC16991 | 55098 | 5232 | inactive
CG17147 (GeneID 40216) | DRSC10249 | 1.24e5 | 5400 | inactive
CG2493 (GeneID 35316) | DRSC02707 | 90442 | 3798 | inactive
CG13577 (GeneID 37885) | DRSC04213 | 1.12e5 | 4830 | inactive
Pisd (GeneID 42849) | DRSC15935 | 77007 | 4061 | inactive
Pink1 (GeneID 31607) | DRSC18361 | 7166 | 764 | inactive
P5CS (GeneID 40443) | DRSC11831 | 75234 | 4076 | inactive
P5CS (GeneID 40443) | DRSC11832 | 1.39e5 | 7245 | inactive
Eaat2 (GeneID 33247) | DRSC00032 | 1.42e5 | 6147 | inactive
Eaat2 (GeneID 33247) | DRSC00749 | 85917 | 4090 | inactive
Ns2 (GeneID 36989) | DRSC06993 | 63234 | 3499 | inactive
Mettl3 (GeneID 42844) | DRSC15921 | 1.14e5 | 5596 | inactive
Adf1 (GeneID 47082) | DRSC04941 | 1.43e5 | 4910 | inactive
Adf1 (GeneID 47082) | DRSC04963 | 78013 | 3502 | inactive
hop (GeneID 32080) | DRSC20340 | 1.17e5 | 6690 | inactive
CG12589 (GeneID 50157) | DRSC12215 | 1.11e5 | 4949 | inactive
Ak2 (GeneID 37834) | DRSC04043 | 1.26e5 | 4623 | inactive
PhKgamma (GeneID 32120) | DRSC20268 | 8159 | 720 | inactive
CG13627 (GeneID 42941) | DRSC14629 | 1.20e5 | 5027 | inactive
kek3 (GeneID 34912) | DRSC03553 | 1.10e5 | 4771 | inactive
CG6565 (GeneID 34749) | DRSC02970 | 79482 | 3263 | inactive
Sclp (GeneID 32156) | DRSC19851 | 8230 | 760 | inactive
Hel89B (GeneID 41943) | DRSC16700 | 68796 | 2952 | inactive
TrpA1 (GeneID 39015) | DRSC10544 | 1.00e5 | 4054 | inactive
CG33060 (GeneID 39807) | DRSC09939 | 1.57e5 | 7082 | inactive
ind (GeneID 2768974) | DRSC11355 | 1.20e5 | 5703 | inactive
CG1638 (GeneID 43721) | DRSC15132 | 64132 | 4772 | inactive
VhaAC45 (GeneID 35944) | DRSC07058 | 3081 | 209 | inactive
CG9215 (GeneID 32494) | DRSC20171 | 1.40e5 | 6054 | inactive
CG34161 (GeneID 5740441) | DRSC01132 | 1.60e5 | 7483 | inactive
yem (GeneID 43439) | DRSC14865 | 1.22e5 | 7925 | inactive
yem (GeneID 43439) | DRSC17097 | 1.22e5 | 10764 | inactive
CG7702 (GeneID 42242) | DRSC16293 | 65365 | 2687 | inactive
Mef2 (GeneID 36032) | DRSC07468 | 2635 | 192 | inactive
CG5768 (GeneID 42915) | DRSC15870 | 65225 | 3489 | inactive
scpr-A + scpr-C + scpr-B | DRSC15715 | 1.48e5 | 6680 | inactive
CG34057 (GeneID 3885645) | DRSC08375 | 97519 | 4633 | inactive
Nt5b (GeneID 32822) | DRSC19976 | 1.70e5 | 6382 | inactive
Nt5b (GeneID 32822) | DRSC19977 | 2.70e5 | 7928 | inactive
Nt5b (GeneID 32822) | DRSC19978 | 2.52e5 | 6646 | inactive
CG12025 (GeneID 38246) | DRSC08230 | 94744 | 4106 | inactive
alpha4GT2 (GeneID 43124) | DRSC15905 | 1.12e5 | 6756 | inactive
CG44085 (GeneID 34732) | DRSC02922 | 57872 | 119 | inactive
FucTA (GeneID 39653) | DRSC10733 | 1.61e5 | 7993 | inactive
CG32022 (GeneID 317826) | DRSC09678 | 1.10e5 | 3897 | inactive
betaNACtes4 (GeneID 32389) | DRSC19801 | 1.34e5 | 5522 | inactive
mldr (GeneID 31568) | DRSC18100 | 97937 | 5081 | inactive
CG15186 (GeneID 40797) | DRSC12566 | 1.36e5 | 6599 | inactive
Mtap (GeneID 36955) | DRSC06890 | 74790 | 3616 | inactive
Ldh (GeneID 45880) | DRSC11198 | 1.01e5 | 4293 | inactive
ND5 (retired record) (GeneID 192478) | DRSC21281 | 1.37e5 | 6322 | inactive
Sgsh (GeneID 42266) | DRSC14771 | 1.29e5 | 7866 | inactive
CG9395 (GeneID 34742) | DRSC03218 | 1.02e5 | 4636 | inactive
lt (GeneID 3355130) | DRSC03759 | 99342 | 4190 | inactive
piwi (GeneID 34521) | DRSC03592 | 83170 | 3230 | inactive
MnM (GeneID 38384) | DRSC08423 | 1.08e5 | 4355 | inactive
qm (GeneID 38816) | DRSC11386 | 95382 | 3598 | inactive
heix (GeneID 34961) | DRSC03542 | 59357 | 3271 | inactive
Sik2 (GeneID 31170) | DRSC18522 | 1.32e5 | 7140 | inactive
Alp12 (GeneID 35218) | DRSC02515 | 90241 | 4123 | inactive
AMPdeam (GeneID 32352) | DRSC18996 | 83557 | 3017 | inactive
AMPdeam (GeneID 32352) | DRSC19366 | 6922 | 792 | inactive
AMPdeam (GeneID 32352) | DRSC19368 | 1.41e5 | 5192 | inactive
AMPdeam (GeneID 32352) | DRSC19727 | 1.67e5 | 6577 | inactive
CG10616 (GeneID 39420) | DRSC09750 | 70716 | 3289 | inactive
tud (GeneID 37417) | DRSC04719 | 98894 | 4685 | inactive
fh (GeneID 31845) | DRSC18430 | 62768 | 4755 | inactive
